Measured values from article PMC12204631.

T1: 6HIS-HA-JHD2 (S. cerevisiae) (UniProt P47156)
T1 sequence: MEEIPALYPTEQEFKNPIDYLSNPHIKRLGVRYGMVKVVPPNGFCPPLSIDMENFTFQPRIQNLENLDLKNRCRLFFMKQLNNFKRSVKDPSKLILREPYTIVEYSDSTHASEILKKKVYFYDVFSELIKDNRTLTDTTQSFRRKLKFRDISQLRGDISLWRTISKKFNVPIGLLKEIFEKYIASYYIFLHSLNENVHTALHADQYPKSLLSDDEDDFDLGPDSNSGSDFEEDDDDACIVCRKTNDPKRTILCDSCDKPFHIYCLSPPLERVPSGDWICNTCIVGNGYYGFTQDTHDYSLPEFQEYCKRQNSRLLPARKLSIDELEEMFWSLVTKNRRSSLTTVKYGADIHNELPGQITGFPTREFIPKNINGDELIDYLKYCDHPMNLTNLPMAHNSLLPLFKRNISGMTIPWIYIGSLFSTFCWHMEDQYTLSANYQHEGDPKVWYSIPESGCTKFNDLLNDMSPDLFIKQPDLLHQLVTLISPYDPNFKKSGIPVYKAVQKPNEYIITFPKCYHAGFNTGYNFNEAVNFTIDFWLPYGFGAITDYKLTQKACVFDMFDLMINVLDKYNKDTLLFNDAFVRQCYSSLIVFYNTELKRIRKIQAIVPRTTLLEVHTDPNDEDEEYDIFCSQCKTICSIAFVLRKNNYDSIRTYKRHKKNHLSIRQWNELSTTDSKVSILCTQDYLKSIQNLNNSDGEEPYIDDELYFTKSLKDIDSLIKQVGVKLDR

B1: KIC1 (protein, UniProt P38692 1-1080)
chain: MTTKPQNSKQGLAEGEMDVSSLFKRTEVIGRGKFGVVYKGYNVKTGRVYAIKVLNLDSDSDEVEDVQREIQFLASLKQISNITRYYGSYLKDTSLWIIMEHCAGGSLRSLLRPGKIDEKYIGVIMRELLVALKCIHKDNVIHRDIKAANVLITNEGNVKLCDFGVAAQVNQTSLRRQTMAGTPYWMAPEVIMEGVYYDTKVDIWSLGITTYEIATGNPPYCDVEALRAMQLIIKSKPPRLEDRSYSTSLKEFIALCLDEDPKERLSADDLLKSKFIRAHKATPTSILKELISRYLLFRDKNKNKYKIEGSIPENEPSKPSEAPKPSQNGGGDEAQKSIASNDNEIKRVNEGDVEMKWDFDSLSSSDYIIENNINLDALAEDNNEWATAQHDLFNYAYPDEDSYYFDPTSHNTRPFVYQGTTIGKGYPGTIAQNSTLNAPVTNNYTNSKYPSKMVAGTTNTSGTHTAGPMTSSKRLESKAPKQLLELFEDNEIITAENDVNTEAPKISKSISSLNAGNSSRDDFIPSISNEVNGNINNNKMRPHLPPLSSGNNYYSQSTPALPLLQTKFNKTSKGPPTSGLTTAPTSIEIEIPEELPNSALPTPASADPVLIPSTKARSSTVTAGTPSSSSSIQYKSPSNVPRRLTVSNNRPEHCPSTITNQKLGSAVASNSGISSTPNNSNNYNNNTDSENSRGSSGSNTANSTQMGITNPGNVTKLSTHKASSPSRPLFGVGTSPNRKPAGSPTQNIGHNSTHTNLAPPPTMKPMANSKDNKDILLQPLNSIPSSSTLNTISGNSSNNLTSSNYFSNEKEGSRVNGDFKRNNPNLKLQMPLPTPVVRNKLLDPNTATSQNNNGMPGSAGISTNENINQFGFNTSSASNIPVSMTPISEKHIDFGGKIKRSQSISNRKNSSASEHPLNILGSSVSGNVSGIGNNNVGSNNNSGPNNSVPLSANTGNTTIKANSTTIATSSSAAASTTAPISQQTIPSGTQFNHILSSAATAANSVNSLGFGMCPPPQSLQMEMFLDLESFLPGKQRRVDRKPQVLKELENLLQMFEEGLPCIEHALKEQLISTPIKDNEH
B2: KIN4 (protein, UniProt Q01919 1-800)
chain: MASVPKRHTYGGNVVTDRDRHSLQRNNEILHPIHKNQRKHATFGPYIIGSTLGEGEFGKVKLGWTKASSSNEVPKQVAIKLIRRDTIKKDADKEIKIYREINALKHLTHPNIIYLEEVLQNSKYIGIVLEFVSGGEFYKYIQRKRRLKESSACRLFAQLISGVNYMHYKGLVHRDLKLENLLLDKHENLVITDFGFVNEFFEDNELMKTSCGSPCYAAPELVVSTKAYEARKADVWSCGVILYAMLAGYLPWDDDHENPTGDDIARLYKYITQTPLKFPEYITPIPRDLLRRILVPNPRRRINLQTIKRHVWLKPHEAFLSIQPNYWDEHLQKERPKPPNKGDVGRHSTYSSSASSYSKSRDRNSLIIESTLEQHRMSPQLATSRPASPTFSTGSKVVLNDTKNDMKESNINGERTSASCRYTRDSKGNGQTQIEQVSARHSSRGNKHTSVAGLVTIPGSPTTARTRNAPSSKLTEHVKDSSQTSFTQEEFHRIGNYHVPRSRPRPTSYYPGLSRNTADNSLADIPVNKLGSNGRLTDAKDPVPLNAIHDTNKATISNNSIMLLSEGPAAKTSPVDYHYAIGDLNHGDKPITEVIDKINKDLTHKAAENGFPRESIDPESTSTILVTKEPTNSTDEDHVESQLENVGHSSNKSDASSDKDSKKIYEKKRFSFMSLYSSLNGSRSTVESRTSKGNAPPVSSRNPSGQSNRSNIKITQQQPRNLSDRVPNPDKKINDNRIRDNAPSYAESENPGRSVRASVMVSTLREENRSELSNEGNNVEAQTSTARKVLNFFKRRSMRV
B3: SPC29 (protein, UniProt P33419 1-253)
chain: MDYSNFGNSASKKFQDDTLNRVRKEHEEALKKLREENFSSNTSELGNKKHYRAQERMSSPLHRLSPTGKSDDRKVKSPLDDKLRRQLREGNTRLPPPPFSSYGMPPTNRSNLDRIRRRTSSPVRTDKFASQNVIDDQRLEIKYLERIVYDQGTVIDNLTSRITRLESFILNSISDRGDKNFASLEHSRSFSGFPTNKTYGLQMGGLYENDMPYRRSSDNINKEGAREDRSSQIHIENESTEDILKILSSSFHN
B4: SPC42 (protein, UniProt P36094 1-363)
chain: MNGSPTPKRYSSKSSRLYDDYYNIPYQYSNPTPMNRDYNDVGSRINADKLVPEEYKRNTEFINKAVQQNKELNFKLREKQNEIFELKKIAETLRSKLEKYVDITKKLEDQNLNLQIKISDLEKKLSDANSTFKEMRFPKVKDPMVDDDPVSENYDQINVPKHRAPDATGNPRTTNKVSNTSDQDSRLKAIERTLSVLTNYVMRSEDGNNDRMSPLPSPLNTILPINNRLNFQEPKRYNPTVKVNPSDDDIMMYESAELKRVEEEIEELKRKILVRKKHDLRKLSLNNQLQELQSMMDGDDNIKLDNVSKHNHATHRHSSQSSRDYSPSSDACLECSNDLYEKNRVKPENNMSETFATPTPNNR
B5: SPC72 (protein, UniProt P39723 1-622)
chain: MVRRWIPSGRHLRNNDNTGDDDDSEFTNSMDSGMSIPSLRDSMTTRSSHNDPIKPALMNDSNKVKNLEKELTNAKIKIQVLYEYIRRIPNKDGNAPSLGNDTDFRNSIIEGLNLEINKLKQDLKAKEVEYQDTLQFVQENLENSESIVNTINHLLSFILTHFNEQDENAHLLDKEERETLEETLELSSDYVLEKMDTLSKFIIQFLQDFLHSKSRAESKQDKEEFLSLAQSSPAGSQLESRDSPSSKEENTDGGYQNDEIHDSNNHIDTENVMANSTSLPISAVESRFEKTLDTQLEIVIENLHKEYDQFINSIRLKFEKSQKLEKIIASKLNEQSHLLDSLELEENSSSVIEKQDHLISQLKEKIESQSVLINNLEKLKEDIIKMKQNEKVLTKELETQTKINKLKENNWDSYINDLEKQINDLQIDKSEEFHVIQNQLDKLDLENYQLKNQLNTLDNQKLILSQYESNFIKFNQNLLLHLDSIFNILQKILQESSIAQFDRKMKSIKSVPNALKNLNLIQPKLESLYTFIETALESIINSYISSLISMETPEQPHQQGNELTATPNKELTLRIEELQRRWISERERRKLDANASEARIKALEQENESLRSKLFNLSINNP
B6: SPC110 (protein, UniProt P32380 1-944)
chain: MDEASHLPNGSLKNMEFTPVGFIKSKRNTTQTQVVSPTKVPNANNGDENEGPVKKRQRRSIDDTIDSTRLFSEASQFDDSFPEIKANIPPSPRSGNVDKSRKRNLIDDLKKDVPMSQPLKEQEVREHQMKKERFDRALESKLLGKRHITYANSDISNKELYINEIKSLKHEIKELRKEKNDTLNNYDTLEEETDDLKNRLQALEKELDAKNKIVNSRKVDDHSGCIEEREQMERKLAELERKLKTVKDQVLELENNSDVQSLKLRSKEDELKNLMNELNELKSNAEEKDTQLEFKKNELRKRTNELNELKIKSDEMDLQLKQKQNESKRLKDELNELETKFSENGSQSSAKENELKMLKNKIAELEEEISTKNSQLIAKEGKLASLMAQLTQLESKLNQRDSQLGSREEELKKTNDKLQKDIRIAREETVSKDERIIDLQKKVKQLENDLFVIKKTHSESKTITDNELESKDKLIKILENDLKVAQEKYSKMEKELKEREFNYKISESKLEDEKTTLNEKISNLAAENSQLKNKIEDNSTATHHMKENYEKQLESLRKDIEEYKESAKDSEDKIEELKIRIAENSAKVSEKRSKDIKQKDEQISDLTQNLKLQEDEISSLKSIIDRYKKDFNQLKSEQSNIQHDLNLQILNLENKLIESEDELKSLRDSQKIEIENWKRKYNNLSLENDRLLTEKESASDKEREISILNRKLDEMDKEKWNLQESKEKYKRELQKVITANDRLRREKEELNENSNNIRIMEDKMTRIKKNYLSEITSLQEENRRLEERLILNERRKDNDSTMQLNDIISYYKLKYHSEVRHNNDLKVINDYLNKVLALGTRRLRLDTRKGEHSLNISLPDDDELDRDYYNSHVYTRYHDYEYPLRFNLNRRGPYFERRLSFKTVALLVLACVRMKRIAFYRRSDDNRLRILRDRIESSSGRISW
B7: Nud1 (protein, UniProt P32336 1-851)
chain: MDMDTQEAELSSQLENLTINSPRKLRSNAHSNSGKVFKEYESNHDFQDSNFTSQVVEPAISDSVKKPPTMTVLNNYSTVHQKVPSGFSGTTATSHQEAQWKQYFPGIGSGGGTNFGGAVGTANKVPESDLIVSDLVKDLSGVLETNTFKRHLDMKNKTTTMQTHENHDTISISHSKDFFNAEKVSSSFSDDSDSGPAAEAHDVFDGILQKQKSNYLVGSYPSNSNNKNNNNNNNNNNNNSININNKDNARTKEEDEEDTSNSFEFSSSSSMSSSQTQSGRKSKVLKKPPLNTISPGQLGYQFNHTHGAWDPPLNQGLDVSSSHSLDNTSSNQSQFATMVPTGDNHTNGKAPSILDKKAYELTSTKPGDVGYRQKKIQEEENLANSDDTPLDTPKFNDLFTKNGTRAKVKGQMRTSRSISNSNLLEAHKKLKTFPAERVEDITSISEVNTSFNETEKQLISILTSKLSGSPSYDSDWEKILKVDLSRGKLKNMFGMQRLLPNVLVLNLSDNEMNTLEGIPSNVVQLFCSNNKITSAHCSLAGFHDLECLDLSYNLLNTSLKFLSLCHHLQEVNLSYNSIQSLEGIGSSRMKKLNLSNNEINGIIDFEQLILTNNSVVGGWLTVEVLDLSNNNIIGVRNINCLPRLKVLNLNGNPLVSIVESSKMENGTLRALSIKNTGGALSKLQNYKLDDQFTFPYQNLKILKLDGFAQLSKWQKWPATLQILEINGGLASSLPRFSSLKSTNLYSLTIANVRDFTHLPVDLSKELPFLQELHLPGNNLQNAHKLTKTLPRQSVKFLDLRNNPITTPRHDRASTSLHYRQLLQLAGLCQQQCPALATLWLDDTPAPTATNL
B8: Mob1 (protein, UniProt P40484 1-314)
chain: MSFLQNFHISPGQTIRSTRGFKWNTANAANNAGSVSPTKATPHNNTINGNNNNANTINNRADFTNNPVNGYNESDHGRMSPVLTTPKRHAPPPEQLQNVTDFNYTPSHQKPFLQPQAGTTVTTHQDIKQIVEMTLGSEGVLNQAVKLPRGEDENEWLAVHCVDFYNQINMLYGSITEFCSPQTCPRMIATNEYEYLWAFQKGQPPVSVSAPKYVECLMRWCQDQFDDESLFPSKVTGTFPEGFIQRVIQPILRRLFRVYAHIYCHHFNEILELNLQTVLNTSFRHFCLFAQEFELLRPADFGPLLELVMELRDR

What follows are binders tested against T1, 6HIS-HA-JHD2 (S. cerevisiae) (assay: affinity purification with mass spectrometry; whole cell extracts of a wild-type strain with 6HIS-HA-JHD2 induced from the GAL1 promoter for 6 hours; Ni-NTA agarose and anti-HA agarose beads at 4°C for 24 hours; proteins found with the empty vector strain excluded).
In the case of B1, the binding is reported as “binds”.
For B2, the binding was “binds”.
For B3, the binding was “binds”.
For B4, the binding was “binds”.
With B5 the binding was “binds”.
For B6, the binding was “binds”.
For B7, the binding was “binds”.
For B8, the binding was “binds”.

These are yes or no findings as the source states them, for the method shown. In cells and extracts the contact can be indirect. A yes stands for co-enrichment or nearness to the bait. Other partners may have been found. Tags and fused reporters may be left off the sequences shown.
